In the supplement of paper PMC10849652:
The list shows a part of the results.

Chains of the proteins cited; added tags and fusions are not shown. Lines headed by an entry give the natural chain unless they say otherwise; changes in a name come on top.
UniProt Q02790: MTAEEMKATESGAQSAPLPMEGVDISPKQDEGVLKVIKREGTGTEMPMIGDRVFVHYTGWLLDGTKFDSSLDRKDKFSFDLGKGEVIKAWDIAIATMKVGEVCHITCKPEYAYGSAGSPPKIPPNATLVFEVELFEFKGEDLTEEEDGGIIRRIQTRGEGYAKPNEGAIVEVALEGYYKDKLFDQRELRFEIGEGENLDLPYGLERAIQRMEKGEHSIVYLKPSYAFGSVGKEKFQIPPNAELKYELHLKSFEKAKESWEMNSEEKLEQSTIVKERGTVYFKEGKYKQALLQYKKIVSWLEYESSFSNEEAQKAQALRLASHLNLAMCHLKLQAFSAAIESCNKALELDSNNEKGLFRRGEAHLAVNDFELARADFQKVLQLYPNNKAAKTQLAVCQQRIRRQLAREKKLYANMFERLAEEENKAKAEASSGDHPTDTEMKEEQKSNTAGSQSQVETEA
UniProt Q9NVI1: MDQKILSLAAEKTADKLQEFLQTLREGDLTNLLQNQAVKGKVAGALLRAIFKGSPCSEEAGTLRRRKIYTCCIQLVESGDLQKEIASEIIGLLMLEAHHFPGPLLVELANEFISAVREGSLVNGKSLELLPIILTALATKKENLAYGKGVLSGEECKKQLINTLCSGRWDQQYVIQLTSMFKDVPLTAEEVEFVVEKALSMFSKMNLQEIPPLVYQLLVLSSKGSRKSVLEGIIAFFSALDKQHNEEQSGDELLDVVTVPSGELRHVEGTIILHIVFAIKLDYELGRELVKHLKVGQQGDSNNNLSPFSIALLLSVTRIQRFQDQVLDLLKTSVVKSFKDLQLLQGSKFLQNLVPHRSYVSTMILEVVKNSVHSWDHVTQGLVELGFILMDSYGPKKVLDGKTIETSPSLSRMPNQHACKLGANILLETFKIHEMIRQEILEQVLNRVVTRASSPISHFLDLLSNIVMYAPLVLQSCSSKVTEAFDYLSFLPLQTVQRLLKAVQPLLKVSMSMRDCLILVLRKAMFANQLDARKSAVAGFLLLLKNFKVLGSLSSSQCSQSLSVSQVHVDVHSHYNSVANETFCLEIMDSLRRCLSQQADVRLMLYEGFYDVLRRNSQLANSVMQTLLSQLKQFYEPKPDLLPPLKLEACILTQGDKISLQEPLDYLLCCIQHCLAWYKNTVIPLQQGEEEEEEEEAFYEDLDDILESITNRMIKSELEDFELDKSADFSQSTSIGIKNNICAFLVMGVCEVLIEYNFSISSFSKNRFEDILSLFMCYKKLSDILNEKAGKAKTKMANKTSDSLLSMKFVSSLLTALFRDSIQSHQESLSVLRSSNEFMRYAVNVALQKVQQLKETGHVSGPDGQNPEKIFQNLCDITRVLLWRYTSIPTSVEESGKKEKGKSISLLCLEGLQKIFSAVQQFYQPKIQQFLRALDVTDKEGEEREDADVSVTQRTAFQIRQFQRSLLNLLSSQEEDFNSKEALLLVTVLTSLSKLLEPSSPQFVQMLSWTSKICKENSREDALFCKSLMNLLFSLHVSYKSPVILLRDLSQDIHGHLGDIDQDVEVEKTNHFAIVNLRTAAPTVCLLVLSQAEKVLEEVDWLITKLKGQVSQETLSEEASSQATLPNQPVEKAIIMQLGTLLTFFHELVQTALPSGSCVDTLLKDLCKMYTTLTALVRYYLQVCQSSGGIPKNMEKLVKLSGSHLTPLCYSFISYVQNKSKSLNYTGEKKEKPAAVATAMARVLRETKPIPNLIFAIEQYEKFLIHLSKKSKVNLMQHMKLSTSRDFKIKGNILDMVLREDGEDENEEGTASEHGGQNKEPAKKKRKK
UniProt A6NHQ2: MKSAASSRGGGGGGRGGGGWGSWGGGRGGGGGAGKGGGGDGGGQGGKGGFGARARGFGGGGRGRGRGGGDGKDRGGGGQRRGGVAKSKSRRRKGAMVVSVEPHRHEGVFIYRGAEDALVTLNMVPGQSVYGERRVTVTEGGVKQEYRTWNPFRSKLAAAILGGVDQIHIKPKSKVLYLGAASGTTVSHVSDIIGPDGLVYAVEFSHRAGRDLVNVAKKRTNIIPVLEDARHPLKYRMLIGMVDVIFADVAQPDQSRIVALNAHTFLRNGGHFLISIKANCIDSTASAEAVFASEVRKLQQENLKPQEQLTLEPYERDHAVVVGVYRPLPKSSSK
UniProt P98173: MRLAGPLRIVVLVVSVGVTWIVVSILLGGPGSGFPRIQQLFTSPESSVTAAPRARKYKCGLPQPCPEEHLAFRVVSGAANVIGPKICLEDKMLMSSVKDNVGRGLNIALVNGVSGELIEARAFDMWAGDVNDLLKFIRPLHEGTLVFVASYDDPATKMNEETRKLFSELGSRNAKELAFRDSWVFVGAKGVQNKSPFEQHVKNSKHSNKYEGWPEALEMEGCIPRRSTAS
UniProt P12318: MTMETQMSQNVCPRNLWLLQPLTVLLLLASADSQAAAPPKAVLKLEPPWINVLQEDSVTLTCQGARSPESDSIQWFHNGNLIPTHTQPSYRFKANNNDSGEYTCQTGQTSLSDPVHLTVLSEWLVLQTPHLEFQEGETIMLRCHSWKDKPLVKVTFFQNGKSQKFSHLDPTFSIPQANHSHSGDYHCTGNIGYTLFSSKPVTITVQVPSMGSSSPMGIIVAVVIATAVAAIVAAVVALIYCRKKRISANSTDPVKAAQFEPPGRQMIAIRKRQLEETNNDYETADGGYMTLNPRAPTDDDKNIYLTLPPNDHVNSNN
UniProt Q8TB52: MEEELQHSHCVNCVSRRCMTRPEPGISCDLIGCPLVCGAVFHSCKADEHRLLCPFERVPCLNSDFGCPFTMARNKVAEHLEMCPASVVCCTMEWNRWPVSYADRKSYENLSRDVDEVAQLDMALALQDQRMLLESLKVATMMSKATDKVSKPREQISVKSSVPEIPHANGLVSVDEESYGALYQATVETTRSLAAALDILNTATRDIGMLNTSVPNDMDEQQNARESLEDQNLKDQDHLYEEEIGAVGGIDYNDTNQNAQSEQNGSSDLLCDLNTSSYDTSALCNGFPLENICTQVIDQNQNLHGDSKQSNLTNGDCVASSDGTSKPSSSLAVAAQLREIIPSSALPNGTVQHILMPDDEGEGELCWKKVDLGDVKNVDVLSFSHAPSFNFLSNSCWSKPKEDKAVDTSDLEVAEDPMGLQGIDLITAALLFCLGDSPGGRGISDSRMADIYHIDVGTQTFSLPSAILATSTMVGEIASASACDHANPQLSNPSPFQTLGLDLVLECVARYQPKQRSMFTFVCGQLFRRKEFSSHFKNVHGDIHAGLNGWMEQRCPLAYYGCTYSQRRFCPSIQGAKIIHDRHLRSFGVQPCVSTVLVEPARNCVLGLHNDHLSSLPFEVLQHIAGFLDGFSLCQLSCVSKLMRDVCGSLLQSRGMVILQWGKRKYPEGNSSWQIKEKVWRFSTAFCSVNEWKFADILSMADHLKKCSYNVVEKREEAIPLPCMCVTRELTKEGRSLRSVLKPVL
UniProt O95302: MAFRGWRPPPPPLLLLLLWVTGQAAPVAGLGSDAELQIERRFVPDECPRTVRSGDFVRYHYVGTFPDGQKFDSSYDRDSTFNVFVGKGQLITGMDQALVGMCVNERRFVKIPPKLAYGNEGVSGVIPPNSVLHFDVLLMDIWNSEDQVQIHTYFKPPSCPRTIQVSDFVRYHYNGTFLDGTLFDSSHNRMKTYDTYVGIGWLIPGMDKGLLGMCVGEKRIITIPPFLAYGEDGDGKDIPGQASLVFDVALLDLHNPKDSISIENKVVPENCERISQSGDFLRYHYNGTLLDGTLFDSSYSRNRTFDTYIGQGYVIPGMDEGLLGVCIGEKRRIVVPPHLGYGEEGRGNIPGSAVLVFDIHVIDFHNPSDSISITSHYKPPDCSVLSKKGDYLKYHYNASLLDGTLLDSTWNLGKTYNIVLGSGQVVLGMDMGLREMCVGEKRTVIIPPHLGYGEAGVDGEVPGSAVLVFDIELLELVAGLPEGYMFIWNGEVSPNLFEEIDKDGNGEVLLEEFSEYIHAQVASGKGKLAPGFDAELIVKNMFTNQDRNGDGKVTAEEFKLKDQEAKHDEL
UniProt P22570: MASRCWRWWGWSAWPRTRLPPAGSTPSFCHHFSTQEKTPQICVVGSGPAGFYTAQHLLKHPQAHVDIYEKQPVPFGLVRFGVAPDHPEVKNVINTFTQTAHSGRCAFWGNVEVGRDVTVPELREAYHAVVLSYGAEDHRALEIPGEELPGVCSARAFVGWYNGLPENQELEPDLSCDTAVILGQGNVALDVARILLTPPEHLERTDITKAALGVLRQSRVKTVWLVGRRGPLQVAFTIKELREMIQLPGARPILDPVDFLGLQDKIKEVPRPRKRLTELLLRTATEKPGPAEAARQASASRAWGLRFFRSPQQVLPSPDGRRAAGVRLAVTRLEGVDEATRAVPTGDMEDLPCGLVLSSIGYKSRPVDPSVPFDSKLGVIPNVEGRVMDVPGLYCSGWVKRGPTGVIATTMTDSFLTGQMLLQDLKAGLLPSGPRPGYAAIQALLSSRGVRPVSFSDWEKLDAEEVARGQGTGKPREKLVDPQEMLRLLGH
UniProt Q86UX7, whole entry, looked up: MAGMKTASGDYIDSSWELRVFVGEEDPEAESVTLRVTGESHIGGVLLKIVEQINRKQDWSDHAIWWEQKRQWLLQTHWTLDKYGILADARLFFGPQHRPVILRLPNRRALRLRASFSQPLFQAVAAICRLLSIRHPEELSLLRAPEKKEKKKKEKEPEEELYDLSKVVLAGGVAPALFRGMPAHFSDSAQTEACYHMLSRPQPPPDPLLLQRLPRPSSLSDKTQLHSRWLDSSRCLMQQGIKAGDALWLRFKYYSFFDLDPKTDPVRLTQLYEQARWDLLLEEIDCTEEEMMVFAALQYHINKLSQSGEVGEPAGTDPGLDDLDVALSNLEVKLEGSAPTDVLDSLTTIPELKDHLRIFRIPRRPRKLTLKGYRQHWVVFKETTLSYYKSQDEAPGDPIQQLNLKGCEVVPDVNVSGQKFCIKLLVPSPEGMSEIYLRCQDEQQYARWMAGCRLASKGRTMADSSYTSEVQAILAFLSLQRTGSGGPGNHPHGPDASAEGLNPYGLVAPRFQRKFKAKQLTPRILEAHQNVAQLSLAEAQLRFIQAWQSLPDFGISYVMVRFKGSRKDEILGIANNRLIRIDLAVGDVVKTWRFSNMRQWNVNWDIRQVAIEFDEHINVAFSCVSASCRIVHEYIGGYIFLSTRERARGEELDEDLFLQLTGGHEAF
UniProt Q14192: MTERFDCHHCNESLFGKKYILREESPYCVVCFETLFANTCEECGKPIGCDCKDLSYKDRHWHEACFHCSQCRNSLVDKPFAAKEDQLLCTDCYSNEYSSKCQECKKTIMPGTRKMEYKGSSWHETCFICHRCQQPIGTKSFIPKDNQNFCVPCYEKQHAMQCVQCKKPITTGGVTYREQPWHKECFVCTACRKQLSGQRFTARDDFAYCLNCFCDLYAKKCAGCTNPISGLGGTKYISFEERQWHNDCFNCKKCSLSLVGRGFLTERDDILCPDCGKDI
UniProt Q9NWM8: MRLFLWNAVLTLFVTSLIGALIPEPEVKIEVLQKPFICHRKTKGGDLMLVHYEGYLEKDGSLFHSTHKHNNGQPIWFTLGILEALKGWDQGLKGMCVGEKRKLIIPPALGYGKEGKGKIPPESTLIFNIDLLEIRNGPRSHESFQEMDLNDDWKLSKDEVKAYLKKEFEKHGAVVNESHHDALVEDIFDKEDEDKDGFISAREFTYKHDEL
UniProt Q96HJ9: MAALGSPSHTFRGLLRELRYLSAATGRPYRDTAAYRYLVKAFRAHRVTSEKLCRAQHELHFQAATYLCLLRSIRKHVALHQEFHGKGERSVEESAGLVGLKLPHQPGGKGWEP
UniProt P22087: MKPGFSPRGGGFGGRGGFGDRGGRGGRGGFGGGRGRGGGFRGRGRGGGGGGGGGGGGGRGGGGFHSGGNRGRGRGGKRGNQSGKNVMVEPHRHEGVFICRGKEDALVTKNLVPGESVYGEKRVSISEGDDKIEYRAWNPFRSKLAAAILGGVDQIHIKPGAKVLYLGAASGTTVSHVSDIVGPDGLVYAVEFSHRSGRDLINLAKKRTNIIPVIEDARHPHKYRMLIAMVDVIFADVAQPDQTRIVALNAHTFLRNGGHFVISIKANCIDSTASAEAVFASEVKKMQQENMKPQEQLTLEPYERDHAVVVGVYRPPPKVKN

How the values were obtained:
Test in all cases: log2 fold change, soluble protein after heating vs DMSO (PISA); higher = thermal stabilisation; K562 cells, 10 uM, 30 min; active = over 0.2 and 3.5 SD of the protein, either way, in both replicates (recomputed)
[1] = compound: NC(=O)Nc1cc(-c2cccc(F)c2)sc1C(=O)N[C@H]1CCCNC1
How it was run: (§1)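 Thermal stability values are relative to control samples and come from duplicates. They are expressed as log2 fold changes. For measurement, K562 cells (2×10^6 cells/mL) received 10 μM compound for 30 min, and aliquots were heated for 3 min over 48°C-58°C, pooled, and extracted at 4°C in PBS with 0.5% NP-40. Soluble protein, the supernatant after 21,000xg for 90 min, was quantified by TMTpro 16plex LC-MS/MS with equalised channel sums.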

[2] = compound: NC(=O)c1cnc(N[C@@H]2CCCC[C@@H]2N)nc1Nc1cccc(-n2nccn2)c1
How it was run: as §1

[3] = compound: NC1(c2ccc(-c3nc4ccn5c(=O)[nH]nc5c4cc3-c3ccccc3)cc2)CCC1
How it was run: as §1

[4] = compound: NCC(=O)Nc1ccc(-n2nc(C(F)(F)F)cc2-c2ccc3c(ccc4ccccc43)c2)cc1
How it was run: as §1

entinostat = compound: Nc1ccccc1NC(=O)c1ccc(CNC(=O)OCc2cccnc2)cc1 [entinostat]
How it was run: as §1

vorinostat = compound: O=C(CCCCCCC(=O)Nc1ccccc1)NO [vorinostat]
How it was run: as §1

citarinostat = compound: O=C(CCCCCCNC(=O)c1cnc(N(c2ccccc2)c2ccccc2Cl)nc1)NO [citarinostat]
How it was run: as §1

silmitasertib = compound: O=C(O)c1ccc2c(c1)nc(Nc1cccc(Cl)c1)c1ccncc12 [silmitasertib]
How it was run: as §1

[5] = compound: O=C1NC(=O)C(c2cnc3ccccn23)=C1c1cn2c3c(cc(F)cc13)CN(C(=O)N1CCCCC1)CC2
How it was run: as §1

[6] = compound: c1cc(OCCN2CCCCC2)cc(-c2n[nH]c3ccc(-c4nnc[nH]4)cc23)c1
How it was run: as §1

entospletinib = compound: c1cn2cc(-c3ccc4cn[nH]c4c3)nc(Nc3ccc(N4CCOCC4)cc3)c2n1 [entospletinib]
How it was run: as §1

| Target | log2 fold change [1] | log2 fold change [2] | log2 fold change [3] | log2 fold change [4] | log2 fold change (entinostat) | log2 fold change (vorinostat) | log2 fold change (citarinostat) | log2 fold change (silmitasertib) | log2 fold change [5] | log2 fold change [6] | log2 fold change (entospletinib) |
| --- | --- | --- | --- | --- | --- | --- | --- | --- | --- | --- | --- |
| FKBP4 (UniProt Q02790) | inactive: 0.005 | inactive: -0.071 | inactive: -0.114 | inactive: -0.053 | inactive: 0.039 | inactive: 0.035 | inactive: 0.072 | inactive: 0.01 | inactive: -0.02 | inactive: -0.029 |  |
| FANCI (UniProt Q9NVI1) | inactive: 0.139 | inactive: -0.069 | active: -0.281 | inactive: -0.08 | inactive: 0.083 | inactive: 0.112 | inactive: 0.099 | inactive: -0.089 | inactive: 0.033 | inactive: -0.045 |  |
| FBLL1 (UniProt A6NHQ2) | inactive: 0.122 | inactive: 0.25 | inactive: 0.341 | inactive: 0.08 | inactive: -0.062 | inactive: -0.074 | inactive: -0.167 | inactive: 0.121 | inactive: 0.061 | inactive: -0.268 | inactive: -0.005 |
| FAM3A (UniProt P98173) | inactive: 0.022 | inactive: -0.028 | active: -0.21 | inactive: 0.006 | inactive: -0.097 | inactive: -0.01 | inactive: 0 | inactive: -0.015 | inactive: 0.034 | inactive: -0.028 |  |
| FCGR2A (UniProt P12318) | inactive: -0.008 | inactive: -0.113 | inactive: 0.099 | inactive: -0.052 | inactive: -0.002 | inactive: -0.103 | inactive: -0.029 | inactive: -0.045 | inactive: 0.137 | inactive: -0.1 | inactive: 0.145 |
| FBXO30 (UniProt Q8TB52) | inactive: -0.035 | inactive: -0.032 | inactive: -0.126 | inactive: -0.007 | inactive: -0.003 | inactive: -0.07 | inactive: 0.069 | inactive: 0.042 | inactive: 0.01 | inactive: -0.004 | inactive: -0.025 |
| FKBP9 (UniProt O95302) | inactive: -0.073 | inactive: 0.007 | inactive: -0.028 | inactive: -0.013 | inactive: -0.02 | inactive: -0.03 | inactive: 0.029 | inactive: 0.015 | inactive: -0.007 | inactive: -0.056 | inactive: 0.027 |
| FDXR isoform 7 (UniProt P22570) | inactive: -0.03 | inactive: -0.044 | inactive: -0.083 | inactive: -0.082 | inactive: -0.006 | inactive: 0.084 | inactive: 0.031 | inactive: -0.034 | inactive: -0.197 | inactive: -0.11 |  |
| FLNA (UniProt P21333) | inactive: -0.069 | inactive: -0.069 | inactive: -0.093 | inactive: -0.072 | inactive: 0.042 | inactive: 0.061 | inactive: 0.062 | inactive: 0.11 | inactive: -0.002 | inactive: -0.032 |  |
| FERMT3 (UniProt Q86UX7) | inactive: -0.055 | inactive: -0.107 | inactive: -0.106 | inactive: -0.065 | inactive: 0.032 | inactive: 0.026 | inactive: 0.067 | inactive: -0.001 | inactive: -0.048 | inactive: -0.02 |  |
| FHL2 (UniProt Q14192) | inactive: -0.007 | inactive: 0 | inactive: 0.026 | inactive: 0 | inactive: -0.035 | inactive: -0.018 | inactive: -0.013 | inactive: 0.012 | inactive: -0.027 | inactive: -0.019 | inactive: -0.008 |
| FKBP14 (UniProt Q9NWM8) | inactive: 0.043 | inactive: -0.041 | inactive: -0.014 | inactive: 0.007 | inactive: 0.003 | inactive: -0.045 | inactive: -0.021 | inactive: -0.003 | inactive: -0.115 | inactive: -0.014 | inactive: -0.045 |
| FMC1 (UniProt Q96HJ9) | inactive: 0.01 | inactive: -0.044 | inactive: -0.011 | inactive: 0.013 | inactive: -0.042 | inactive: -0.054 | inactive: 0.044 | inactive: 0.006 | inactive: -0.012 | inactive: -0.053 |  |
| FBL (UniProt P22087) | inactive: 0.095 | inactive: 0.165 | inactive: 0.455 | inactive: 0.067 | inactive: -0.109 | inactive: 0.005 | inactive: -0.109 | inactive: 0.232 | inactive: 0.13 | inactive: -0.237 |  |

Two entries drawn at random from those above, as already listed:

| Target | log2 fold change [1] | log2 fold change [2] | log2 fold change [3] | log2 fold change [4] | log2 fold change (entinostat) | log2 fold change (vorinostat) | log2 fold change (citarinostat) | log2 fold change (silmitasertib) | log2 fold change [5] | log2 fold change [6] | log2 fold change (entospletinib) |
| --- | --- | --- | --- | --- | --- | --- | --- | --- | --- | --- | --- |
| FLNA (UniProt P21333) | inactive: -0.069 | inactive: -0.069 | inactive: -0.093 | inactive: -0.072 | inactive: 0.042 | inactive: 0.061 | inactive: 0.062 | inactive: 0.11 | inactive: -0.002 | inactive: -0.032 |  |
| FKBP4 (UniProt Q02790) | inactive: 0.005 | inactive: -0.071 | inactive: -0.114 | inactive: -0.053 | inactive: 0.039 | inactive: 0.035 | inactive: 0.072 | inactive: 0.01 | inactive: -0.02 | inactive: -0.029 |  |
